Measured values: PubChem BioAssay AID624246 (National Center for Advancing Translational Sciences (NCATS), 2012)
In all, about 370,000 compounds went through this assay and about 100 (0.027%) were called active. Inconclusive results, whose numbers are uncertain, are shown with a selection of clear calls. The call rests on the fitted dose curve; in most records, active means well fitted inhibition curve with a large enough effect in the polarisation, with a control signal flat; inconclusive means small, poorly fitted or top-dose-only effect, or effect the other way, or a change in a side signal; inactive means no such curve, though single readings can be large or run the other way; the % refers to the polarisation. Potencies beside an inconclusive call are fits to weak or partial responses and may not hold up. A note “side channel” means that the fit belongs to a control or component signal, not to the main read-out.

By UniProt entry, the sequences of proteins in these tests, tags left out.
UniProt P11308, whole entry, looked up: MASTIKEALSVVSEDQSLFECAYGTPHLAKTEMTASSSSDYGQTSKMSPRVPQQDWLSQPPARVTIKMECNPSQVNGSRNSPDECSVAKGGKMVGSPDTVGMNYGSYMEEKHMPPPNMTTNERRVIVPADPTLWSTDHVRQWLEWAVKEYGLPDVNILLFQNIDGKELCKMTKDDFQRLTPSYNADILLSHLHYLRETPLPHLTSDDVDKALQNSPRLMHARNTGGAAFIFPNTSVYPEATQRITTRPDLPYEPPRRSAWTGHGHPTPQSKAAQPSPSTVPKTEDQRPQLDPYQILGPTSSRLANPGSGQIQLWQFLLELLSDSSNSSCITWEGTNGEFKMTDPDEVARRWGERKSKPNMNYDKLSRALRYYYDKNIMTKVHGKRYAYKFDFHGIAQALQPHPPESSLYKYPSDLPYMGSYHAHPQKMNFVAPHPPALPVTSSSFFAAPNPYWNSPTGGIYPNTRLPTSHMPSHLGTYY

These molecules were tested against Transcriptional regulator ERG (Homo sapiens) (UniProt P11308) (assay: qHTS for Small Molecule Inhibitors of the ERG Ets/DNA interaction). Conditions: fluorescence polarization, His-ERG Ets domain / labelled DNA; FP activity, negative = inhibition: at 76.9 µM (top of the series).
Summary of the method: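 His-tagged ERG Ets domain (1 uM in the protein solution; 300mM KCl, 50mM Tris-HCl, 1mM EDTA, 1mM DTT, pH 7.5) received compound, then a probe mix of 5 nM fluorescein-DNA and 100nM Texas-615-DNA. Fluorescence polarization was read for both dyes.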
Potency means the concentration at half of the fitted maximal effect.
Wherever FP activity, negative = inhibition is given: % of control where 0% means no effect.

| SMILES | Potency | FP activity, negative = inhibition |
| --- | --- | --- |
| Cc1ccc(NC(=O)Cc2c(O)c3ccccc3[nH]c2=O)c(C)c1 | inconclusive: 11.2 µM [inhibitor, single point] | – |
| CCOC(=O)C(=O)c1c(-c2ccccc2)nc2ccccn12 | inconclusive: 44.7 µM [inhibitor, single point] | – |
| CN1C(=O)c2cccc3c(N)ccc(c23)C1=O | inconclusive: 39.8 µM [inhibitor, partial curve, poor fit] | – |
| CC1Cc2ccccc2N1CC(=O)N(C)c1c(N)n(Cc2ccccc2)c(=O)[nH]c1=O (stereo unspecified) | inconclusive: 50.1 µM [inhibitor, single point] | – |
| COc1ccccc1OCC(O)CN1CCN(CC(=O)Nc2c(C)cccc2C)CC1 (stereo unspecified) | inconclusive: 1.26 µM [inhibitor, full curve, poor fit] | – |
| COc1ccc(OCCn2c(=O)sc3ccccc32)cc1 | inconclusive: 3.98 µM [inhibitor, single point] | – |
| O=C(Nc1cc(Cl)cc(Cl)c1)c1ccc(F)c(S(=O)(=O)NCc2ccccc2Cl)c1 | – | inactive: 4.42% |
| CC(C)=CCOc1ccc2c(C)c(CC(=O)N3C[C@H]4C[C@@H](C3)c3cccc(=O)n3C4)c(=O)oc2c1C | inconclusive: 11.2 µM [inhibitor, single point] | – |
| O=C1c2ccccc2C(=O)c2c1ncn2-c1ccccc1 | inconclusive: 31.6 µM [inhibitor, single point] | – |
| CC(C)c1ccc(CNC(=O)C(=O)Nc2nccs2)cc1 | – | inactive: -3.11% |
| Cc1ccc(-c2nc(CN3CCCC(C(=O)N4CCOCC4)C3)c(C)o2)cc1 (stereo unspecified) | inconclusive: 7.08 µM [inhibitor, partial curve, poor fit] | – |
| Cc1cnc(NC(=O)c2c(-c3ccccc3)noc2C)s1 | – | inactive: 3.8% |
| O=C(CCNS(=O)(=O)c1ccc2c(c1)CCN2C(=O)C1CC1)Nc1ccc(F)cc1F | inconclusive: 3.98 µM [inhibitor, partial curve, poor fit] | – |
| c1csc(-c2nc3c4ccccc4c4ccccc4c3[nH]2)c1 | inconclusive: 50.1 µM [quencher, side channel, single point] | – |
| CCOC(=O)NC(=S)Nc1ccc(C(C)(C)C)cc1Br | inconclusive: 4.47 µM [inhibitor, single point] | – |
| CCCCN(c1ccccc1)c1ncnc2c1cnn2-c1ccc(Cl)cc1 | inconclusive: 20 µM [fluorescent, side channel, partial curve, poor fit] | – |
| CN(/N=C\c1ccc(O)c(O)c1)c1nc(-c2ccccc2)cc(-c2ccccc2)n1 | inconclusive: 31.6 µM [quencher, side channel, partial curve, poor fit] | – |
| Cc1ccc(/C=N/NC(=O)c2cccs2)s1 | – | inactive: -11.7% |
| COc1ccc(-c2csc3ncnc(N4CCN(S(=O)(=O)c5ccccc5C#N)CC4)c23)cc1 | inconclusive: 28.2 µM [inhibitor, partial curve, poor fit] | – |
| CSCCC(NC(=O)/C(=C/c1ccc2c(c1)OCO2)NC(=O)c1cccc([N+](=O)[O-])c1)C(=O)O (stereo unspecified) | inconclusive: 6.31 µM [inhibitor, partial curve, poor fit] | – |
| Cc1ccc(C(=O)CSc2nnc(CNc3ccc(F)cc3)o2)cc1 | – | inactive: 10.4% |

| SMILES | Potency | FP activity, negative = inhibition |
| --- | --- | --- |
| O=C(NCc1ccccc1)N1CCNCC1 | inconclusive: 8.91 µM [inhibitor, single point] | – |
| COc1ccc(NC2CCCN(C(=O)C3(C)CCCCC3)C2)cc1OC (stereo unspecified) | inconclusive: 25.1 µM [inhibitor, partial curve, poor fit] | – |
| CC(=O)NN1C(=O)/C(=C\c2ccc(Br)o2)SC1=S | inconclusive: 25.1 µM [fluorescent, partial curve, poor fit] | – |
| C/C(=N\NC(=O)c1cc(C2CC2)nc2ccccc12)c1ccc(O)cc1O | – | inactive: 1.86% |
| COc1ccc(S(=O)(=O)N2CCc3ccccc32)cc1C(=O)N(CC(C)C)C1CCS(=O)(=O)C1 (stereo unspecified) | inconclusive: 28.2 µM [inhibitor, partial curve, poor fit] | – |
| CCN(CC(=O)Nc1ccc(N2CCOCC2)cc1)CC(=O)NC(C)(C)C | inconclusive: 2.51 µM [inhibitor, partial curve, poor fit] | – |
| COCc1cc(C)nc(SCC(=O)Nc2ccc3c(c2)OCCO3)c1C#N | inconclusive: 3.55 µM [inhibitor, partial curve, poor fit] | – |
| Cc1cc(C(=O)CSc2nnc(-c3ccccc3)o2)c(C)n1CC1COc2ccccc2O1 (stereo unspecified) | – | inactive: -1.23% |
| CC1(C)C2CCC1(C)C(NCC(O)COc1ccc(C#N)cc1)C2 (stereo unspecified) | inconclusive: 3.55 µM [inhibitor, partial curve, poor fit] | – |
| COc1ccc(Nc2ccnc(Nc3ccc(OC)cc3)n2)cc1 | inconclusive: 28.2 µM [inhibitor, partial curve, poor fit] | – |
| Cc1ncc(CN2CCCC(C(=O)Nc3ccc(-c4ccco4)cc3)C2)n1C (stereo unspecified) | inconclusive: 11.2 µM [inhibitor, partial curve, poor fit] | – |
| CN(C)c1ccc(/C=C2\SC(=S)N(Nc3ncc(C(F)(F)F)cc3Cl)C2=O)cc1 | inconclusive: 7.08 µM [fluorescent, side channel, single point] | – |
| Cc1ccc(NC(=O)c2cc(=O)c3ccccc3o2)cc1S(=O)(=O)N1CCCCC1 | – | inactive: 17.5% |
| COc1cccc(NC(=S)NCc2ccc3c(c2)cc(C)n3C)c1 | inconclusive: 25.1 µM [inhibitor, partial curve, poor fit] | – |
| Cc1ccc(N2CCN(C(=O)c3cn(C)c4ccc(S(=O)(=O)N5CCC(C)CC5)cc4c3=O)CC2C)cc1 (stereo unspecified) | – | inactive: 6.23% |
| CCOc1cc(C#N)c(NC(=O)c2ccc(OC)c(S(=O)(=O)N3CCCCC3)c2)cc1OCC | inconclusive: 4.47 µM [quencher, side channel, partial curve, poor fit] | – |
| C=CC1C(N2CCOCC2)C(C)(C)S1(=O)=O (stereo unspecified) | inconclusive: 39.8 µM [quencher, side channel, partial curve] | – |
| COC(=O)c1[nH]c2cc(C)ccc2c1NC(=O)CN1CCc2cc(OC)c(OC)cc2C1 | inconclusive: 28.2 µM [quencher, side channel, partial curve, poor fit] | – |
| COc1ccc(-n2cc3c(-c4cccc(Br)c4)nnc(C)c3n2)cc1 | inconclusive: 50.1 µM [inhibitor, single point] | – |
| CC(Oc1ccc(Br)cc1)C(=O)Nc1ccc(S(=O)(=O)NC2=NCCCCC2)cc1 (stereo unspecified) | inconclusive: 11.2 µM [inhibitor, single point] | – |
| CCOc1ccc(C(CC(=O)O)NC(=O)Cc2ccc(Cl)cc2)cc1 (stereo unspecified) | inconclusive: 25.1 µM [inhibitor, partial curve, poor fit] | – |

Arranged by molecular weight (low to high): some entries from above.

| SMILES | Potency | FP activity, negative = inhibition |
| --- | --- | --- |
| COc1ccc(Nc2ccnc(Nc3ccc(OC)cc3)n2)cc1 | inconclusive: 28.2 µM [inhibitor, partial curve, poor fit] | – |
| CCN(CC(=O)Nc1ccc(N2CCOCC2)cc1)CC(=O)NC(C)(C)C | inconclusive: 2.51 µM [inhibitor, partial curve, poor fit] | – |
| Cc1ncc(CN2CCCC(C(=O)Nc3ccc(-c4ccco4)cc3)C2)n1C (stereo unspecified) | inconclusive: 11.2 µM [inhibitor, partial curve, poor fit] | – |
| Cc1ccc(N2CCN(C(=O)c3cn(C)c4ccc(S(=O)(=O)N5CCC(C)CC5)cc4c3=O)CC2C)cc1 (stereo unspecified) | – | inactive: 6.23% |

Continuation.

| SMILES | Potency | FP activity, negative = inhibition |
| --- | --- | --- |
| COc1ccccc1NS(=O)(=O)c1cc([N+](=O)[O-])ccc1N/N=C/c1sc(N2CCOCC2)nc1-c1ccccc1 | – | inactive: -4.58% |
| CN1CCN(C(=O)C2=C[C@@H](C(C)(C)C)C[C@@H](OCc3ccc(CO)cc3)O2)CC1 | inconclusive: 7.08 µM [inhibitor, single point] | – |
| CNC(=O)c1cccc(-n2c(C)nc3cccnc32)c1C | inconclusive: 31.6 µM [inhibitor, partial curve] | – |
| COC(=O)c1sc(N2C(=O)c3oc4cc(C)c(C)cc4c(=O)c3C2c2ccccc2F)nc1C (stereo unspecified) | inconclusive: 12.6 µM [quencher, side channel, partial curve, poor fit] | – |
| O/N=C/c1ccc2ccccc2n1 | – | inactive: 4.33% |
| O=C(c1c[nH]c2ccc(S(=O)(=O)Nc3ccccc3F)cc2c1=O)N1CCCCCC1 | inconclusive: 28.2 µM [quencher, side channel, partial curve, poor fit] | – |
| CCCc1nn2c(=O)cc(COC(=O)c3ccc(NC(=O)COc4ccccc4F)cc3)nc2s1 | – | inactive: 2.19% |
| CSc1nsc(/C=C/Nc2ccc(O)cc2C)c1C#N | active: 8.91 µM | – |
| Cc1ccc2nc3c(c(Nc4ccc(C)c(C)c4)c2c1)CCC3 | inconclusive: 11.2 µM [fluorescent, side channel, single point] | – |
| COc1ccc(NC(=O)C2CC(=O)n3c(nc4ccccc43)N2)cc1 (stereo unspecified) | inconclusive: 28.2 µM [inhibitor, partial curve, poor fit] | – |
| COc1ccc(-c2csc3nc(-c4ccc(C)cc4)oc(=O)c23)cc1OC | inconclusive: 2.82 µM [inhibitor, partial curve, poor fit] | – |
| O=C(c1ccc(F)cc1)C1CCN(Cc2ccccc2)CC1 | – | inactive: 0.0448% |
| CCOC(=O)c1ccc(NC2(c3ccccc3)C(=O)c3ccccc3C2=O)cc1 | inconclusive: 56.2 µM [quencher, side channel, single point] | – |
| COC(=O)c1ccc(-n2c(C)cc(C(=O)COC(=O)C3=COCCO3)c2C)cc1 | – | inactive: -8.98% |
| Cc1ccc(C(=O)NCC(=O)OCC(=O)Nc2ncc(C(F)(F)F)cc2Cl)cc1 | inconclusive: 7.94 µM [fluorescent, side channel, partial curve, poor fit] | – |
| CCOc1ccc(-n2ccnc2SCC(=O)Nc2cccc3ccccc23)cc1 | – | inactive: -3.1% |
| CSCCC(NC(=O)c1ccccc1Cl)C(=O)NNC(=O)c1csc(N2CCOCC2)n1 (stereo unspecified) | inconclusive: 11.2 µM [inhibitor, single point] | – |
| Cc1cc(NC(=O)COc2ccc(F)c(Cl)c2)no1 | inconclusive: 2.82 µM [inhibitor, partial curve, poor fit] | – |
| O=C(O)c1cccc(NC(=O)c2cc3cc(Br)cc(Br)c3oc2=O)c1 | – | inactive: 0.7% |
